Paper PMC11963297
These are yes or no findings as the source states them, for the method shown. In cells and extracts the contact can be indirect. A result given as binding can be weak or reduced; the word gives no strength. For some assays here: Sequences can lack the tags named with a protein.

Key:
[1] = molecular target: T1, C-terminally mNeonGreen-tagged human GIT1, transcript variant 1 (GIT1-NG) (human) (UniProt Q9Y2X7); assay: co-IP; whole-cell extracts of cells expressing GIT1-NG, GIT2-NG or NG alone; precipitation with anti-NG Ab or, reciprocally, anti-γ-tubulin Ab on protein A beads; immunoblot
T1 sequence: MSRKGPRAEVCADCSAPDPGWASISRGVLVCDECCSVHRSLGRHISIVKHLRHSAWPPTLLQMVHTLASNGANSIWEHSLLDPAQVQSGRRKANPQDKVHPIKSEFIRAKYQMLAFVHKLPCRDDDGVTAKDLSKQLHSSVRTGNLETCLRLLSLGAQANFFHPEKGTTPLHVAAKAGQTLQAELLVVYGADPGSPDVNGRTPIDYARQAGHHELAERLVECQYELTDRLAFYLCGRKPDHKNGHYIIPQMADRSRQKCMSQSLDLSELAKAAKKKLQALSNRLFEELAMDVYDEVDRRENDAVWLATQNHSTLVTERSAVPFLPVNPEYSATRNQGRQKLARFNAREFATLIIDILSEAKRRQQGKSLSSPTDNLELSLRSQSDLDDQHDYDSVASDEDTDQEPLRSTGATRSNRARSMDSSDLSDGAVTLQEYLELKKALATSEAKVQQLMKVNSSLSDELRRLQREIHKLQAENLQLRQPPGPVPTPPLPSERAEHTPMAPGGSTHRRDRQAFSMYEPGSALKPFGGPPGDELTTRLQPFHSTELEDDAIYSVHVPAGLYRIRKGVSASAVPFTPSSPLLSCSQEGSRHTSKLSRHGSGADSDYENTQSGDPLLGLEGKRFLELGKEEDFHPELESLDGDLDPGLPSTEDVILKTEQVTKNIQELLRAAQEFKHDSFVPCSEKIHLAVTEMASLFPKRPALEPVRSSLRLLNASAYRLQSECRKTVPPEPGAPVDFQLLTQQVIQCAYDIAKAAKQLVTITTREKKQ

[2] = molecular target: T2, C-terminally mNeonGreen-tagged human GIT2, transcript variant 1 (GIT2-NG) (human) (UniProt Q14161); assay: as above
T2 sequence: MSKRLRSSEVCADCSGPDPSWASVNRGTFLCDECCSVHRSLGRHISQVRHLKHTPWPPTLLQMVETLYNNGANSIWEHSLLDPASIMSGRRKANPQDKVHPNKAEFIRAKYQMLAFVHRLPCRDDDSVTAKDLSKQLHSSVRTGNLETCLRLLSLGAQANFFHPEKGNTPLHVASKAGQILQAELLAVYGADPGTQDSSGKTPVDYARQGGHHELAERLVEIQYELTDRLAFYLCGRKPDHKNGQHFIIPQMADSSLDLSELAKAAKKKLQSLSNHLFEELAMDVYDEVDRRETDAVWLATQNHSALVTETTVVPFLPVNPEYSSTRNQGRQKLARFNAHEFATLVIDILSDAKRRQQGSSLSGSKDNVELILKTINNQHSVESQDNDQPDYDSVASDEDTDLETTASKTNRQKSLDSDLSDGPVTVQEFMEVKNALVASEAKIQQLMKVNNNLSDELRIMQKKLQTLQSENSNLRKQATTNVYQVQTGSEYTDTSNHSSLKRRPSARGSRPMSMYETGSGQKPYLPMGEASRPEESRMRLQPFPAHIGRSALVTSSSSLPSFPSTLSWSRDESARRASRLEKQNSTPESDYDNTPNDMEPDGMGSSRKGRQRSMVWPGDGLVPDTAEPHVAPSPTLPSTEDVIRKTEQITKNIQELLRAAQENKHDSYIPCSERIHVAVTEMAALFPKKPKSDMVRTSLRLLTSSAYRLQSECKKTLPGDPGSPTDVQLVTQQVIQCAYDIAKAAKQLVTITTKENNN

[3] = molecular target: T3, N-terminally GST-tagged full-length human GIT2 (tv1) (GST-GIT2) (human) (UniProt Q14161); assay: pull-down; GST-fusion proteins or GST alone immobilised on Glutathione-Sepharose and incubated with whole-cell extracts of U-251 MG cells; immunoblot; only the target purified
T3 sequence: T2 sequence

[4] = molecular target: T4, N-terminally GST-tagged full-length human GIT1 (GST-GIT1) (human) (UniProt Q9Y2X7); assay: as above
T4 sequence: T1 sequence

[5] = molecular target: T5, GST-tagged N-terminal ArfGAP domain of human GIT2, residues 1-124 (GST-GIT2(1-124)) (human) (UniProt Q14161); assay: as above
T5 sequence: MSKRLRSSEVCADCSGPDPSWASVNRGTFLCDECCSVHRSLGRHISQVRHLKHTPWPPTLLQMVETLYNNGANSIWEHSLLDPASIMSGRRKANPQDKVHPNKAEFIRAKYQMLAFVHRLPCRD

[6] = molecular target: protein kinase C alpha (PKCα), endogenous (human (endogenous in U-251 MG)) (UniProt P17252); assay: co-IP; whole-cell extracts of U-251 MG cells (HEPES buffer with 1% NP-40, protease and phosphatase inhibitors) incubated with protein A beads preloaded with rabbit Ab to GIT1, GIT2 or PKCα or mAb TU-31 to γ-tubulin; immunoblot; endogenous proteins
[7] = molecular target: T6, G protein-coupled receptor kinase-interacting protein 1 (GIT1), endogenous (human (endogenous in U-251 MG)) (UniProt Q9Y2X7); assay: as above
T6 sequence: T1 sequence

[8] = molecular target: T7, G protein-coupled receptor kinase-interacting protein 2 (GIT2), endogenous (human (endogenous in U-251 MG)) (UniProt Q14161); assay: as above
T7 sequence: T2 sequence

Measured: binding

γ-tubulin, endogenous (from UniProt P23258)
binds: all assays above
